These are yes or no findings as the source states them, for the method shown. Binding calls can cover weak binding; strength is not graded here. Sequences can lack the tags named with a protein.

The source of these data is doi:10.1101/2024.06.27.600868.

B1: Cwf23 wild type fused to the GAL4 activation domain (protein, UniProt Q9P7C6 1-289)
chain: MASEGDSIDYYELLGINEDAQDQEIHRAWRKTSLKYHPDKNPNDPKAAEKFHMLQLAYNALIDVQLRKAYDSERFAKLARKRREEAFNFQRKSMVDDLRERERQFYDSLEKKENERDRLQEKLRALQEESANLRRQRENRLREEQEQSKRRKQETPSSKISELDRSIRIRWKRKYADQVNDAYLRSIYSSFGTLQNVVIQKDISKEKKYVYSIIVFETLSSAYSAINAEKPSKIYDVQWLKPPKSNSNTPTEKDTTVEDYEEITIMRMKQKHKQKQKENERKATSTMNA
B2: Cwf23 H37Q fused to the GAL4 activation domain (protein, UniProt Q9P7C6 1-289)
chain: MASEGDSIDYYELLGINEDAQDQEIHRAWRKTSLKYQPDKNPNDPKAAEKFHMLQLAYNALIDVQLRKAYDSERFAKLARKRREEAFNFQRKSMVDDLRERERQFYDSLEKKENERDRLQEKLRALQEESANLRRQRENRLREEQEQSKRRKQETPSSKISELDRSIRIRWKRKYADQVNDAYLRSIYSSFGTLQNVVIQKDISKEKKYVYSIIVFETLSSAYSAINAEKPSKIYDVQWLKPPKSNSNTPTEKDTTVEDYEEITIMRMKQKHKQKQKENERKATSTMNA
B3: Cwf23 ΔJ fused to the GAL4 activation domain (domain or fragment, UniProt Q9P7C6 67-289)
chain: RKAYDSERFAKLARKRREEAFNFQRKSMVDDLRERERQFYDSLEKKENERDRLQEKLRALQEESANLRRQRENRLREEQEQSKRRKQETPSSKISELDRSIRIRWKRKYADQVNDAYLRSIYSSFGTLQNVVIQKDISKEKKYVYSIIVFETLSSAYSAINAEKPSKIYDVQWLKPPKSNSNTPTEKDTTVEDYEEITIMRMKQKHKQKQKENERKATSTMNA

This assay deals with SpNtr1 fused to the GAL4-binding domain (S. pombe). Put plainly: two-hybrid.
Turning to B1, the binding result is “binds”.
As to B2, the binding result is “binds”.
B3: the binding entry was “binds”.
